PubChem BioAssay AID652272, Drosophila RNAi Screening Center, 2013
In all, the deposit lists about 21,000 reagents; shown is an unselected part of those with a known target gene and a result. Of all reagents, 503 (2.4%) are marked active. 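Raw plate light values, not normalised; calls rest on replicate z-scores that were not deposited; hits include reporter decreases as well as increases.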 The numbers tell different reagents against one gene apart. Reagent sequences are not shown. Not stated in the record: the amount of reagent, the time to read-out.

- Assay: 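Genome-wide knock-down search for components of Hedgehog signalling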 (primary screen)
- System: Drosophila clone 8 (Cl8) cells
- Reagent: long dsRNA against Drosophila genes
- Measured: 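Plate reader light from a firefly reporter under a ptc promoter fragment that responds to Hedgehog, with Renilla light as transfection reference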
- Scale: firefly Hh reporter signal: higher = more ptc reporter light; Renilla reference signal: higher = more Renilla control light
- Rule for the call: 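Called a hit if the two-replicate mean z-score lies below -2 or above +3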
- Calls: active = hit: reporter lowered or raised; inactive = not a hit

Depletion of C3G (C3G guanyl-nucleotide exchange factor) #1 gave: firefly Hh reporter signal, replicate 1 = 88896; firefly Hh reporter signal, replicate 2 = 3.27e5; Renilla reference signal, replicate 1 = 3600; Renilla reference signal, replicate 2 = 12058; inactive.
C3G (C3G guanyl-nucleotide exchange factor) #2 gave firefly Hh reporter signal, replicate 1 = 98936; firefly Hh reporter signal, replicate 2 = 2.68e5; Renilla reference signal, replicate 1 = 3540; Renilla reference signal, replicate 2 = 9463; inactive.
Knock-down of CG15144 resulted in: firefly Hh reporter signal, replicate 1 = 89409; firefly Hh reporter signal, replicate 2 = 64626; Renilla reference signal, replicate 1 = 2530; Renilla reference signal, replicate 2 = 6149; inactive.
Vrp1 (Verprolin 1) scored firefly Hh reporter signal, replicate 1 = 76336; firefly Hh reporter signal, replicate 2 = 55803; Renilla reference signal, replicate 1 = 2698; Renilla reference signal, replicate 2 = 2209; inactive.

Copied from the entries so far for reference:
C3G (C3G guanyl-nucleotide exchange factor) #1: firefly Hh reporter signal, replicate 1 = 88896; firefly Hh reporter signal, replicate 2 = 3.27e5; Renilla reference signal, replicate 1 = 3600; Renilla reference signal, replicate 2 = 12058; Call = inactive
C3G (C3G guanyl-nucleotide exchange factor) #2: firefly Hh reporter signal, replicate 1 = 98936; firefly Hh reporter signal, replicate 2 = 2.68e5; Renilla reference signal, replicate 1 = 3540; Renilla reference signal, replicate 2 = 9463; Call = inactive

The results go on:
With knock-down of Ude (Uracil-DNA degrading factor) the results were firefly Hh reporter signal, replicate 1 = 1.09e5; firefly Hh reporter signal, replicate 2 = 69261; Renilla reference signal, replicate 1 = 4365; Renilla reference signal, replicate 2 = 3057; inactive.
Silencing of Sirt7 (Sirtuin 7) gave: firefly Hh reporter signal, replicate 1 = 85772; firefly Hh reporter signal, replicate 2 = 1.04e5; Renilla reference signal, replicate 1 = 1387; Renilla reference signal, replicate 2 = 3235; inactive.
For CG5026, the entry reads firefly Hh reporter signal, replicate 1 = 96160; firefly Hh reporter signal, replicate 2 = 1.19e5; Renilla reference signal, replicate 1 = 4289; Renilla reference signal, replicate 2 = 4611; inactive.
Depletion of CG9467 came out at: firefly Hh reporter signal, replicate 1 = 1.25e5; firefly Hh reporter signal, replicate 2 = 72341; Renilla reference signal, replicate 1 = 4678; Renilla reference signal, replicate 2 = 2403; inactive.
mRpL54 (mitochondrial ribosomal protein L54) scored firefly Hh reporter signal, replicate 1 = 1.52e5; firefly Hh reporter signal, replicate 2 = 87892; Renilla reference signal, replicate 1 = 4759; Renilla reference signal, replicate 2 = 3065; inactive.
CG31639 scored firefly Hh reporter signal, replicate 1 = 6.25e5; firefly Hh reporter signal, replicate 2 = 2.60e5; Renilla reference signal, replicate 1 = 32612; Renilla reference signal, replicate 2 = 11776; inactive.
Against CG13954, the values are firefly Hh reporter signal, replicate 1 = 98682; firefly Hh reporter signal, replicate 2 = 49072; Renilla reference signal, replicate 1 = 2432; Renilla reference signal, replicate 2 = 4054; inactive.
Knock-down of CG32182 gave: firefly Hh reporter signal, replicate 1 = 1.65e5; Renilla reference signal, replicate 1 = 3920; inactive.
CG10352 showed firefly Hh reporter signal, replicate 1 = 62641; firefly Hh reporter signal, replicate 2 = 2.42e5; Renilla reference signal, replicate 1 = 1735; Renilla reference signal, replicate 2 = 8657; inactive.
Knock-down of CG3108 came out at: firefly Hh reporter signal, replicate 1 = 1.45e5; firefly Hh reporter signal, replicate 2 = 1.26e5; Renilla reference signal, replicate 1 = 3416; Renilla reference signal, replicate 2 = 3344; inactive.
